# Measured values: publication PMC3921201
# No constants are given. Whether binding was seen depends on the method and setting. In cells and extracts the contact can be indirect. Some entries that bind do so weakly or less than the wild type. Where a sequence is shown, tags or fusion partners need not be part of it.
# T1: EGFP fusion of mouse PDZ-K1 (NHERF3) (mouse) (UniProt Q9JIL4)
# T1 sequence: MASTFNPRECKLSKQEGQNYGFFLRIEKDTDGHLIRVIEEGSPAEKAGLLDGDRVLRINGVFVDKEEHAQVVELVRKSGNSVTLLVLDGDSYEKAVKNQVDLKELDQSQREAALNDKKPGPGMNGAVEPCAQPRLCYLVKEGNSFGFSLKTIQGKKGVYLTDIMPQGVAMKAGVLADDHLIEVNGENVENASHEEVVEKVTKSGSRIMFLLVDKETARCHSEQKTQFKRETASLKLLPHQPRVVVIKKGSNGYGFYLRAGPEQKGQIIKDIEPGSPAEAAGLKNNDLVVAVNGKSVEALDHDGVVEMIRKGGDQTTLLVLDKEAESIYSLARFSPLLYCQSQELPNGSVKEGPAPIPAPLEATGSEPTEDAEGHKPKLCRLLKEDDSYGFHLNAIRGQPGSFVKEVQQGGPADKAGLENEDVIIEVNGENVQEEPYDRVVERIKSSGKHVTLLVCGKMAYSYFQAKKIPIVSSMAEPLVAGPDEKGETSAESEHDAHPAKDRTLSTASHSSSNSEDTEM
# Molecular target: T1, EGFP fusion of mouse PDZ-K1 (NHERF3) (mouse)
# Test: co-IP; mRFP-tagged SSTR5 coexpressed with GFP-tagged PDZ proteins; lysis in RIPA buffer; precipitation with GFP-trap beads, 2 h at 4°C; Western blot
binder,measurement,value
"mRFP-tagged mouse somatostatin receptor subtype 5 (wild type) (receptor, UniProt O08858 1-362) MEPLSLTSTPSWNASAASSSSHNWSLVDPVSPMGARAVLVPVLYLLVCTVGLGGNTLVIYVVLRYAKMKTVTNVYILNLAVADVLFMLGLPFLATQNAVSYWPFGSFLCRLVMTLDGINQFTSIFCLMVMSVDRYLAVVHPLRSARWRRPRVAKLASAAVWVFSLLMSLPLLVFADVQEGWGTCNLSWPEPVGLWGAAFITYTSVLGFFGPLLVICLCYLLIVVKVKAAGMRVGSSRRRRSERKVTRMVVVVVLVFVGCWLPFFIVNIVNLAFTLPEEPTSAGLYFFVVVLSYANSCANPLLYGFLSDNFRQSFRKALCLRRGYGVEDADAIEPRPDKSGRPQTTLPTRSCEANGLMQTSRL",binding,binds
